In PubChem BioAssay AID504834 (National Center for Advancing Translational Sciences (NCATS), 2011):
About 22,000 (6.9%) of roughly 320,000 compounds were called active. This list was built around the results that the source calls inconclusive (neither active nor inactive); the mix of calls is not that of the screen. The call rests on the fitted dose curve; in most records, active means well fitted inhibition curve with a large enough effect; inconclusive means small, poorly fitted or top-dose-only effect, or another doubt; inactive means no such curve, though single readings can be large or run the other way. Potencies of inconclusive entries are doubtful fits and often do not repeat.

test: Primary qHTS for delayed death inhibitors of the malarial parasite plastid, 96 hour incubation; settings: P. falciparum luciferase reporter growth; series mostly up to 28.7 µM; activity change, negative = inhibition: at the top concentration
Summary of the method: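 Two parasite generations (96 h, 37 C, 5% CO2) of compound exposure in infected erythrocytes (0.05% parasitemia, 2% hematocrit). Luciferase-reporter P. falciparum; decreased luminescence indicates inhibited growth, aimed at apicoplast-acting delayed death.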
On the % scale 0 is the no-effect control and ±100 the full control effect; potency means the concentration at half of the fitted maximal effect.

| Compound | Potency | activity change, negative = inhibition |
| --- | --- | --- |
| CCOC(=O)c1c(C)oc2c1c(C=NCCO)c(O)c1ccccc12 | active: 13.1 µM |  |
| CCOC(=O)C1=C(C)N(CC(C)C)C(=O)/C1=C\c1cccs1 | inconclusive: 1.17 µM [inhibitor, full curve] |  |
| COc1cccc(-n2nnnc2SCC(=O)N2CCCc3ccccc32)c1 | inconclusive: 0.147 µM [inhibitor, full curve, poor fit] |  |
| Cc1ccc(Cn2nc(C)c(NC(=O)c3nn(C)cc3Cl)c2C)cc1 |  | inactive: -13.7% |
| COc1ccc(S(=O)(=O)N2CCOCC2)cc1NC(=O)C1CCCN1C(=O)c1cccs1 (stereo not drawn) | inconclusive: 18.5 µM [inhibitor, single point] |  |
| COc1ccc(C(=O)/C(=C/c2cccs2)c2nc3ccccc3o2)cc1 | inconclusive: 16.5 µM [inhibitor, single point] |  |
| CCCn1cc(CN2CCC(Oc3ccc(C(=O)N4CCCC4)cc3)CC2)c(C)n1 | active: 10.4 µM |  |
| O=C(Nc1ccncc1)C1(c2ccccc2)CCCC1 |  | inactive: -1.09% |
| Cc1ccc(-c2nc3ccc(NS(=O)(=O)c4ccccc4)cc3[nH]2)o1 |  | inactive: 96.8% |
| Cc1ccc(OCC(O)CN2CC3(C)CC2CC(C)(C)C3)cc1 (stereo not drawn) | inconclusive: 18.5 µM [inhibitor, single point] |  |
| O=C(NCC1CCCN1S(=O)(=O)c1cccs1)c1ccc([N+](=O)[O-])cc1 (stereo not drawn) | inconclusive: 11.7 µM [inhibitor, partial curve, poor fit] |  |
| COc1ccc(OC)c2sc(NNC(=O)COc3ccccc3)nc12 |  | inactive: 0% |
| O=C(Cc1ccccc1)Nc1ccc(NC(=O)c2ccc(Br)cc2)cc1 | inconclusive: 11.7 µM [inhibitor, single point] |  |
| CCN(CC)C(=O)CN(c1ccc2c(c1)OCO2)S(C)(=O)=O |  | inactive: -1.76% |
| COc1cccc(NC(=O)CN(C)C(=O)CCCc2nc3ccccc3s2)c1 | inconclusive: 11.7 µM [inhibitor, partial curve] |  |
| COc1ccc(NC2=C(C)C(=O)CC2)cc1 | inconclusive: 18.5 µM [inhibitor, single point] |  |
| CCCC(=O)NCC(c1cccs1)S(=O)(=O)c1ccc(C)cc1 (stereo not drawn) | inconclusive: 3.7 µM [inhibitor, partial curve, poor fit] |  |
| CN1CCN(C(CNC(=O)C(=O)Nc2ccc3c(c2)OCCO3)c2ccc(F)cc2)CC1 (stereo not drawn) | inconclusive: 11.7 µM [inhibitor, single point] |  |
| O=C(c1cc2cc(F)ccc2[nH]1)N1CCc2ccccc2C1 | inconclusive: 18.5 µM [inhibitor, single point] |  |
| CCOC(=O)c1oc2c(O)c(O)ccc2c(=O)c1-c1nncn1-c1ccccc1 | inconclusive: 13.1 µM [inhibitor, single point] |  |
| CCOc1cccc2sc(N(CCCN(C)C)C(=O)c3ccc(S(=O)(=O)N4CCc5ccccc5C4)cc3)nc12 | inconclusive: 18.5 µM [inhibitor, single point] |  |
| CCOc1ccc(Nc2nc(N(C)c3ccccc3)nc(N)c2[N+](=O)[O-])cc1 |  | inactive: 8.73% |

Sorted by number of heavy atoms (high to low): some entries from above

| Compound | Potency | activity change, negative = inhibition |
| --- | --- | --- |
| CCCn1cc(CN2CCC(Oc3ccc(C(=O)N4CCCC4)cc3)CC2)c(C)n1 | active: 10.4 µM |  |
| O=C(Cc1ccccc1)Nc1ccc(NC(=O)c2ccc(Br)cc2)cc1 | inconclusive: 11.7 µM [inhibitor, single point] |  |
| Cc1ccc(Cn2nc(C)c(NC(=O)c3nn(C)cc3Cl)c2C)cc1 |  | inactive: -13.7% |

(continued)

| Compound | Potency | activity change, negative = inhibition |
| --- | --- | --- |
| CCOc1ncccc1C(=O)OCC(=O)Nc1cc(S(=O)(=O)N2CCOCC2)ccc1C | inconclusive: 0.0928 µM [inhibitor, full curve, poor fit] |  |
| c1ccc(CC2CCN(c3nc4ccccc4n4nnnc34)CC2)cc1 | inconclusive: 18.5 µM [inhibitor, single point] |  |
| CCc1cccc2c(C(=O)COC(=O)/C=C/c3ccc(O)c(OC)c3)c[nH]c12 | inconclusive: 10.4 µM [inhibitor, partial curve] |  |
| Brc1ccc(Oc2ncc(CN3CCN(c4ccccc4)CC3)s2)cc1 | inconclusive: 18.5 µM [inhibitor, single point] |  |
| O=C(CNC(=O)C1CCCCC1)OCC(=O)c1ccc(Br)cc1 |  | inactive: 6.6% |
| O=C(NC(=S)Nc1ccccn1)c1ccc(-c2ccccc2)cc1 | inconclusive: 9.28 µM [inhibitor, partial curve, poor fit] |  |
| CC[C@@]12C(=O)N(c3cccc(F)c3)C(=O)N1[C@H](c1ccc(Br)cc1)[C@@H]1C(=O)N(C(C)(C)C)C(=O)[C@@H]12 | inconclusive: 18.5 µM [inhibitor, single point] |  |
| CC(C)c1ccc(C2CC(=O)N3CN(C)CSC3=C2C#N)cc1 (stereo not drawn) | inconclusive: 18.5 µM [inhibitor, single point] |  |
| Cc1ccc(S(=O)(=O)N2CCCN(S(=O)(=O)c3ccc4ccccc4c3)CC2)cc1 | active: 10.4 µM |  |
| CN(/N=C\c1ccc(O)c(O)c1)c1nc(-c2ccccc2)cc(-c2ccccc2)n1 | inconclusive: 10.4 µM [inhibitor, single point] |  |
| COc1ccc(N2CCN(c3cc(C)c4ccccc4n3)CC2)cc1 |  | inactive: 9.97% |
| O=C(NCCCCC(NC(=O)c1ccc([N+](=O)[O-])cc1)C(=O)O)c1ccc([N+](=O)[O-])cc1 (stereo not drawn) |  | inactive: 0.877% |
| Cc1c(C(=O)O)oc2c1C(O)CC(C)(C)C2 (stereo not drawn) | inactive |  |
| CC1(C)Cc2c(sc3c2c(N)nc(=S)n3Cc2ccccc2)CO1 | inconclusive: 5.86 µM [inhibitor, partial curve] |  |
| CC(C)CCNC(=O)CN(Cc1ccc(F)cc1)C(=O)CCC(=O)Nc1ccccn1 | inconclusive: 9.28 µM [inhibitor, partial curve] |  |
| COc1ccc(CCc2nnc(CCC(=O)N(C)Cc3ccncc3C)o2)cc1 | inconclusive: 10.4 µM [inhibitor, single point] |  |
| Cc1nnc(NC2CCCCC2)[nH]c1=O | inconclusive: 18.5 µM [inhibitor, single point] |  |
| Cn1c(O)c(/C=C2\N=c3ccccc3=C2CCNC(=S)NC2CC2)c(=O)n(C)c1=O |  | inactive: -4.68% |
| COc1ccc(Cn2c(=S)[nH]c3cc(C(=O)N4CCN(c5ccccc5)CC4)ccc3c2=O)cc1 | inconclusive: 9.28 µM [inhibitor, single point] |  |
| O=C1C=C(c2cccc(CO)c2)C[C@@H](c2ccc(F)cc2)C1 | active: 2.08 µM |  |
| O=C1C2CC=C(Cl)CC2C(=O)N1CN(Cc1ccco1)CN1C(=O)C2CC=C(Cl)CC2C1=O (stereo not drawn) |  | inactive: 38.1% |
